Assay results published in the supplement of paper PMC3334620.
Whole data set: some 33,000 sequences, median “E-score (-0.5 to 0.5)” near -0.0034, cut for the highest 2% near 0.25. This is one part of the list.

Biological target: T1, Yap3 (UniProt P38749)
T1 sequence: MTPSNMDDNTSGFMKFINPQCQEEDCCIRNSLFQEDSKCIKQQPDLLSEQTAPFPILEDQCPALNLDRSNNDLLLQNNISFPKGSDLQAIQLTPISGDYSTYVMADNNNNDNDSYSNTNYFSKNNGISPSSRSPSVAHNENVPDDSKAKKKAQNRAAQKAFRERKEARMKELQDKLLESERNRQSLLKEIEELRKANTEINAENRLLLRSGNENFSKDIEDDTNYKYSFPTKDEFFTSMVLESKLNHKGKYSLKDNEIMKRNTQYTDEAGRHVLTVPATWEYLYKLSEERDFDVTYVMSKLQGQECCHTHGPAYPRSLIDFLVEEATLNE
Assay: PBM E-score (8-mer binding enrichment) (E-score (-0.5 to 0.5)); higher = stronger / more preferred TF binding
Details: protein concentration: 100 nM; construct: GST-full length
Experimental: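 Universal 'all 10-mer' protein binding microarrays (Agilent AMADID 015681) probed with GST-tagged S. cerevisiae TFs (full-length or DBD) made by in vitro transcription/translation (PURExpress), about 100-200 nM. Bound TF was detected with fluorescent anti-GST. Each ungapped 8-mer (which stands for itself and its reverse complement) is scored by the PBM enrichment score (E-score), a modified Wilcoxon-Mann-Whitney statistic from -0.5 to +0.5, computed with the Universal PBM Analysis Suite. Scale: above 0.35 generally sequence-specific binding.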

Sequence | PBM E-score
CCGGTTAG | -0.111
ACCCTCAT | -0.187
AGTACCAC | 0.0292
CGGCGCAG | -0.094
GCTAGTGA | -0.0229
CACGCATC | -0.0655
GCCGATAC | -0.0723
CGAAATGC | 0.138
TAACAGGA | 0.195
AACGAGTG | -0.0979
ATACTCCG | 0.0742
AGTTAGTC | 0.0694
ACGCAAGT | -0.0875
AGGAATGA | 0.0283
GTGCGACA | -0.0998
CACTTCCG | 0.0806
CCACTCGA | 0.00136
AACATTGA | 0.121
CGTGAGAA | -0.0738
CGTATCGA | -0.0593
CGTGGGCA | -0.226
CATGGCAC | -0.12
CGCGGGAC | -0.00314
ACCCTCGT | -0.041
GGCTAGTA | 0.094

Another view of part of the listing above.
Sequence	PBM E-score
CGTATCGA	-0.0593
CGTGGGCA	-0.226
CATGGCAC	-0.12

Additional results follow.

Sequence | PBM E-score
AGTTAGGA | 0.0358
ACTTCCCG | -0.0663
ACGTATAC | 0.155
CTTTCCAC | 0.0879
CATGGTAA | 0.144
AATTGCGC | 0.231
GAGCGCTC | -0.0353
ATTTATTG | 0.0964
ATACCGCG | 0.187
ATAGAAAG | 0.00085
GTTGGACA | 0.0869
AGTCGGAC | -0.0202
TACTATGA | 0.189
AAAGTTAA | 0.228
CAAGTTGA | -0.00801
GACCATCA | 0.00881
CTGCCGCC | -0.335
GTTGCCTA | 0.0281
ATTGTGTC | 0.158
CAATTCTC | -0.0124
GATCTCGC | 0.0469
AACGGCAG | -0.0518
AAGTAAGT | 0.00102
ACTTATAC | 0.174
CTTGAGAA | -0.0484

Sequence | PBM E-score
GGAGTTTA | -0.0285
AACGTTCC | -0.104
ATTTCGTA | 0.129
ATGCACTC | -0.00115
ACAGATAG | -0.00363
CCGATTTC | -0.0101
AACTTCTC | 0.0525
CCCCGCCC | 0.00985
ATACCAAA | 0.123
ACTTATGG | -0.0318
CCATTGAG | 0.0109
AACAGTAT | 0.192
GCTGGGTA | -0.028
CACCATCC | -0.145
CATCACAC | 0.114
AGATTGCT | 0.00867
AGATACAC | 0.154
ACCGGGCT | -0.223
GCCGATCA | 0.00289
GATTCGAA | 0.142
ACTAATTA | 0.362
CTTCGCCC | -0.229
CATGCAGG | -0.15
AGTGATGC | -0.0267
GTTGAATA | 0.162

Part of the list above, as comma-separated lines.
Sequence,PBM E-score
AACGTTCC,-0.104
ATTTCGTA,0.129
ATGCACTC,-0.00115
ACAGATAG,-0.00363

The results go on.

Sequence | PBM E-score
AAATCAGC | 0.157
GAACAATC | 0.139
AGTTCCTC | -0.173
CCAACCGG | -0.193
ATAGACAC | -0.0202
TGGACCAA | -0.00121
ACCCTAGG | -0.151
AGCCTCCT | -0.163
AATGGCTA | 0.169
CCCATAAG | 0.0386
AGGCGAGC | -0.187
CACCGACG | -0.121
GTTAGCAA | 0.223
CCAAAAGA | 0.15
GGGTATGA | 0.0924
CGTACCTC | -0.265
AGGCGTAT | 0.0812
ATTCGGCG | -0.00807
AAATGAGC | -0.00997
ATATCCAC | 0.0865
ACATGGGG | -0.0705
GCTAACAC | 0.0247
CCCGGCGG | -0.345
CGTCGTCC | -0.0992
CAACGCAA | 0.0467

Sequence | PBM E-score
GGCGAACA | 0.0302
GTCCGGCA | -0.16
ATTAAAAA | 0.285
AGGCAACC | -0.149
AAGGCGAA | -0.0603
ACGTTTTC | 0.153
AAGAATTC | -0.0947
GTCTGAAC | -0.0647
CTCGCACC | -0.114
AACCAGGC | -0.00725
TCGTGAGA | -0.122
TCAAGTCA | 0.0399
AAAGGCGC | -0.0234
AGAGAGCG | -0.0939
CACCAAGC | -0.127
ATGGGGGC | -0.311
CAGTCCCC | -0.275
GGTCTGTA | -0.0177
AAGAAGTA | 0.12
AAGATACA | 0.262
ATATGGGG | -0.108
GCGGACCC | -0.252
GTACGGCA | -0.0161
CAACGGAA | 0.15
CACAAATG | -0.0666

Sequence | PBM E-score
ACTAGACG | 0.0294
ATATGAAC | 0.204
CCAGTGAC | -0.229
ACCGGCAT | 0.0985
CAGATTGG | -0.236
GTCACGGA | -0.0868
ACCGAGGA | 0.00574
ACGCTAGA | -0.117
TAGTGCCA | -0.138
CTTCACTA | 0.0247
CGACTGTA | -0.124
ACACCGGC | -0.0945
AAGCAGTC | -0.0517
TATCCTAA | 0.156
CCATACGA | 0.0281
ACAATCTG | 0.0719
ATCAAGTA | 0.155
TAGTAAAA | 0.148
AGTATGTA | 0.0677
CAAGGCGC | -0.048
AAAATGCG | 0.0493
GTCAATGA | 0.03
CTGAGATA | 0.155
ACTGAGCT | -0.0894
AAAGACTT | -0.108

Sequence | PBM E-score
TAAAGATA | 0.254
GGGTGCAA | 0.00539
GGGAAAGA | -0.0127
AAGTTTAC | 0.0978
TATTCTGA | -0.0529
CTATGGAG | -0.0464
ACACCGGG | -0.138
AGACTGGG | -0.0888
AGTACGGC | -0.0233
GCTTGAGA | -0.199
CTAGACGA | -0.157
ATAGTTTA | 0.0591
ATACCTAC | -0.0217
CCAGCTCC | -0.254
GAATTGCA | 0.101
AGACTGCG | -0.207
GATGACCC | -0.161
ACTCGAAC | -0.0222
CGTGATCA | 0.112
ATAGGAAG | -0.0275
ATGCCAGG | -0.148
AGGAACTA | 0.0401
